Measurements reported in PubChem BioAssay AID1671190 (National Center for Advancing Translational Sciences (NCATS), 2021).
Among all 580,000 compounds or so, about 6,100 (1.1%) were called active. Inconclusive means that the source gave no clear call. Such entries were picked first, then a sample of the others. Calls come from the whole dose curve; as a rule, active = well fitted inhibition curve with a large enough effect; inconclusive = small, poorly fitted or top-dose-only effect, or another doubt; inactive = no such curve, though single readings can be large or run the other way. A potency beside an inconclusive call is a rough fit, not a confirmed value.

Sequences of proteins named here, by UniProt entry; tags and fusion partners are left off.
UniProt P18054, whole entry, looked up: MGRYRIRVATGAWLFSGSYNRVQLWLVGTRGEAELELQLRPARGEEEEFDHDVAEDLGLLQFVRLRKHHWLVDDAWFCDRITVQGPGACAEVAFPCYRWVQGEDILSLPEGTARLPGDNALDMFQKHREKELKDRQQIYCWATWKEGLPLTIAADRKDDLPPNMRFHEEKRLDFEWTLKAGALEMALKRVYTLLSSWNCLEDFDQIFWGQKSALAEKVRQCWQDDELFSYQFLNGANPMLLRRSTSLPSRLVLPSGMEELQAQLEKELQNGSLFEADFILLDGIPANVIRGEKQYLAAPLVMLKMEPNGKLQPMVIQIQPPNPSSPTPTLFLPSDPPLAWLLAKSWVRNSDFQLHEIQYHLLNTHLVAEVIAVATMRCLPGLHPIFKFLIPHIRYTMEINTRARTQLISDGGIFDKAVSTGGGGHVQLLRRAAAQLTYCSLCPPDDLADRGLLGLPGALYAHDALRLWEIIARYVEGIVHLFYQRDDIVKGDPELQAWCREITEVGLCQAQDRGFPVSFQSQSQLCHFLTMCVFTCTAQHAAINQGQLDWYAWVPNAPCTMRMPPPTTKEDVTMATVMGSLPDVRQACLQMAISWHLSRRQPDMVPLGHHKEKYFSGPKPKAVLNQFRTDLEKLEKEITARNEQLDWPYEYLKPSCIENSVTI

biological target: Polyunsaturated fatty acid lipoxygenase ALOX12 (Homo sapiens) (UniProt P18054); assay: Primary qHTS assay for inhibitors of human arachidonate 12S-lipoxygenase (ALOX12): Round 2; conditions: purified 12hLO, xylenol orange hydroperoxide absorbance; series mostly up to 108 µM
In short: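 Purified human 12hLO (150 nM final) in 25 mM Hepes, 0.01% Triton X-100, pH 7.0 was preincubated 15 min at room temperature with compound. Then 40 uM arachidonic acid was added, 30 min. Hydroperoxide was read by Fe-XO absorbance ratio 573/405 nm.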
Potency is the fitted concentration of half-maximal effect.

SMILES | Potency
C=C(C)COc1ccc(-c2n[nH]c(C)c2-c2ccccc2)c(O)c1 | inconclusive: 141 µM [inhibitor, single point]
Cc1nc(C(=O)N2CC[C@H](n3nnc(C(N)=O)c3C(N)=O)C[C@H]2C(=O)N[C@@H](Cc2cccs2)C(N)=O)cs1 | inactive
COC(=O)c1[nH]c(C)c(/C(O)=C2\C(=O)C(=O)N(CCCn3ccnc3)C2c2cccc(OC)c2)c1C (stereo not given) | inconclusive: 3.55 µM [inhibitor, full curve]
COc1cc(NC(=O)Cc2nc(-c3cccs3)oc2C)cc(OC)c1 | inconclusive: 56.2 µM [inhibitor, partial curve, poor fit]
COc1cccc2c1C1COC3C4CC(C(=O)O)C(C(C2)N13)N4C (stereo not given) | inconclusive: 3.98 µM [inhibitor, full curve, poor fit]
Cc1ccc(-c2n[nH]c(=S)n2/N=C/c2cccs2)cc1 | inconclusive: 70.8 µM [inhibitor, partial curve, poor fit]
S=C(NC(=NC=C(Cl)Cl)c1ccc(Cl)cc1)Nc1ccc(Cl)cc1 | active: 20 µM
Cc1ccc(NC(=O)C2CCN(C(=O)NCc3ccccc3)CC2)cc1C | inconclusive: 112 µM [inhibitor, partial curve, poor fit]
Cc1ccccc1-c1nccc2c(=O)cc(-c3ccncc3)oc12 | inconclusive: 50.1 µM [inhibitor, partial curve]
O=C(COC(=O)C12CC3CC(CC(C3)C1)C2)Nc1ccc(F)cc1[N+](=O)[O-] | inactive
Cc1ccc(-c2ccccc2NC(=O)CCl)o1 | inconclusive: 35.5 µM [inhibitor, single point]
CSc1ccc(/C=N/NC(=O)c2ccc(C)c(C)c2)cc1 | inactive
Cn1cc(C(=O)NCCc2ccccc2)c(=O)c2cc(S(=O)(=O)N3CCCCC3)ccc21 | inactive
Cc1ccc(C(=O)Nc2c(C)n(C)n(-c3ccccc3)c2=O)cc1S(=O)(=O)N1CCCCC1 | inconclusive: 35.5 µM [inhibitor, partial curve, poor fit]
COc1ccc(Cn2c(SCc3ccc(C)cc3)nc3cc(OC)c(OC)cc3c2=N)cc1Cl | inactive
Cc1cc(-c2ccc(C)c(S(=O)(=O)NCc3cccs3)c2)on1 | inconclusive: 158 µM [inhibitor, partial curve, poor fit]
CC(C)CCSc1nc(N)c(C#N)cc1C#N | inactive
Cc1[nH]nc2c1C(c1ccc(F)cc1)C1=C(COC1=O)N2 (stereo not given) | inactive
CCN(CC)C(=O)[C@H]1C[C@H](CC(=O)NCCC2=CCCCC2)C(=O)N2CCc3c([nH]c4ccc(Cl)cc34)[C@]12C | inconclusive: 70.8 µM [inhibitor, partial curve, poor fit]
Cc1ccc(NC(=O)C2CCCC2)cc1C | inconclusive: 35.5 µM [inhibitor, single point]
COC(=O)Cn1c(=O)oc2ccc(C)cc21 | inactive
CC1(C(=O)NS(=O)(=O)c2ccc(Cl)cc2)CCN1C(=O)CC1CCCC1 (stereo not given) | inconclusive: 56.2 µM [inhibitor, partial curve, poor fit]

3 entries drawn at random from those above, as already listed:
SMILES | Potency
COC(=O)Cn1c(=O)oc2ccc(C)cc21 | inactive
COc1cccc2c1C1COC3C4CC(C(=O)O)C(C(C2)N13)N4C (stereo not given) | inconclusive: 3.98 µM [inhibitor, full curve, poor fit]
S=C(NC(=NC=C(Cl)Cl)c1ccc(Cl)cc1)Nc1ccc(Cl)cc1 | active: 20 µM

The listing continues.

SMILES | Potency
CC1=NS(=O)(=O)N(C)C=C1C(=O)OCc1nc(-c2ccc3c(c2)OCO3)no1 | inactive
Cc1nn(-c2cc(C)c3ccccc3n2)c2c1CCC2 | inconclusive: 50.1 µM [inhibitor, single point]
O=C1Cc2cc(-c3csc(Nc4ccccc4Cl)n3)ccc2N1 | inconclusive: 31.6 µM [inhibitor, partial curve, poor fit]
NCc1ccc(C(=O)N2CCCC2)cc1 | inconclusive: 35.5 µM [inhibitor, partial curve, poor fit]
Oc1cc(-c2nc3ccccc3s2)cc2c1OCCN(Cc1ncccn1)C2 | inactive
Cc1ccc(CNS(=O)(=O)c2ccc3c(c2)N(C)CCO3)cc1 | inconclusive: 0.355 µM [inhibitor, full curve, poor fit]
COC(=O)C1CN(C)CCC1=O (stereo not given) | inconclusive: 44.7 µM [inhibitor, partial curve, poor fit]
CC(=O)Nc1ccc(S(=O)(=O)N2CN(c3ccc(C)cc3)c3nc4ccccc4nc32)cc1 | inconclusive: 39.8 µM [inhibitor, partial curve, poor fit]
Cc1ccc(C(=O)Nc2cccc(C(=O)NC3CCCC3)c2)cc1 | inconclusive: 31.6 µM [inhibitor, single point]
O=Cc1ccccc1-n1ccnc1 | inconclusive: 3.98 µM [inhibitor, full curve, poor fit]
O=C1c2ccccc2NC2(CCSC2)N1c1ccc2c(c1)OCO2 (stereo not given) | inconclusive: 141 µM [inhibitor, single point]
c1ccc(-n2nnnc2NCCCNC2CCCCC2)cc1 | inconclusive: 7.08 µM [inhibitor, partial curve, poor fit]
O=C(Nc1nccs1)c1ccc(COc2ccccc2)o1 | inconclusive: 14.1 µM [inhibitor, partial curve, poor fit]
COc1ccc(CNC(=O)CS(=O)(=O)Cc2nc(-c3ccccc3C)oc2C)cc1 | inconclusive: 63.1 µM [inhibitor, partial curve, poor fit]
Clc1cccc(-n2nnnc2NCc2ccccc2Oc2ccccn2)c1Cl | active: 12.2 µM
CC(=O)Nc1ccc(S(=O)(=O)NC2=C(N3CCN(Cc4ccccc4)CC3)C(=O)c3ccccc3C2=O)cc1 | inconclusive: 100 µM [inhibitor, single point]
Cc1c(CC(=O)O)c(=O)oc2cc(OCc3ccccc3F)ccc12 | inconclusive: 112 µM [inhibitor, single point]
O=S(=O)(c1cccc2c(Cl)cccc12)N1CCCNCC1 | inconclusive: 10 µM [inhibitor, partial curve, poor fit]
O=C(Nc1nncs1)c1cc(-c2ccco2)nc2ccccc12 | inconclusive: 28.2 µM [inhibitor, partial curve]
O=C(COC(=O)c1ccc2ncsc2c1)Nc1ccc(Cl)cc1 | inconclusive: 44.7 µM [inhibitor, partial curve, poor fit]
Cn1cnc2c1c(=O)n(Cc1cccc(Cl)c1)c(=O)n2C | inactive
CC(C)(C)c1cccc(P(=O)(c2ccccc2)c2ccccc2)c1O | inactive

SMILES | Potency
Cc1cc(N2CCNC[C@H]2C)ccc1N1CCN(Cc2ccccc2)[C@H](C)C1 | inconclusive: 44.7 µM [inhibitor, partial curve, poor fit]
Cc1cc(C(=O)COC(=O)c2nccnc2N)c(C)n1CCc1ccccc1 | inconclusive: 3.98 µM [inhibitor, full curve, poor fit]
COc1ccc(S(=O)(=O)N2CCCC(C(=O)Nc3cccc(C(C)=O)c3)C2)cc1 (stereo not given) | inactive
CN(CC1CCOCC1)C(=O)c1cccc(Cl)c1 | inactive
COc1ccc(CNc2ccccc2)cc1 | inconclusive: 10 µM [inhibitor, partial curve, poor fit]
O=S(=O)(Cc1ccccc1F)N1CCCC(CN2CCOCC2)CC1 (stereo not given) | inactive
CSc1nc(C(C)C)nc(C)c1C(=O)Nc1cc(Cl)ccc1C | inconclusive: 44.7 µM [inhibitor, partial curve, poor fit]
O=C1NC(c2ccccc2)=C(c2ccccc2)C1=O | inconclusive: 31.6 µM [inhibitor, full curve, poor fit]
CC(=O)Nc1c(C)nn(-c2ccccc2)c1N1CCC(C(=O)NCc2ccc(F)cc2)CC1 | inconclusive: 20 µM [inhibitor, partial curve, poor fit]
O=C(CSc1cc([N+](=O)[O-])cc(S(=O)(=O)Cc2ccccc2)c1)NC1CC1 | inconclusive: 56.2 µM [inhibitor, partial curve, poor fit]
CNC(=O)c1ccc(NC(=O)/C=C/c2cccc(F)c2)cc1 | inconclusive: 112 µM [inhibitor, single point]
N#Cc1ccccc1S(=O)(=O)N1CCN(Cc2c(O)ccc3ccccc23)CC1 | active: 11.2 µM
COc1ccc(N(Cc2nnc(-c3ccc(Cl)cc3)o2)S(=O)(=O)c2ccc(C(C)=O)cc2)cc1 | inconclusive: 44.7 µM [inhibitor, partial curve, poor fit]
NS(=O)(=O)c1ccc(NC(=S)NCc2ccco2)cc1 | inconclusive: 44.7 µM [inhibitor, partial curve, poor fit]
Cc1cc(=O)oc2cc(OCCC(C)C)ccc12 | inconclusive: 44.7 µM [inhibitor, partial curve, poor fit]
Cc1ccc[n+](CC(=O)Nc2ccc([N+](=O)[O-])cc2)c1 | inconclusive: 44.7 µM [inhibitor, partial curve, poor fit]
CC1=CC(=O)C(C(C)C)=C/C1=C(\c1cc(C(C)C)c(OP(=O)(O)O)cc1C)c1ccccc1C(=O)O | inconclusive: 39.8 µM [inhibitor, partial curve, poor fit]
CC(=O)c1ccc(NC(=O)CSc2nnc(N)s2)cc1 | inconclusive: 3.16 µM [inhibitor, full curve, poor fit]
CCn1nc(C(=O)Nc2nccs2)c2ccccc2c1=O | inconclusive: 79.4 µM [inhibitor, partial curve, poor fit]
CN1CCN(C(=S)NC(=O)c2cccc([N+](=O)[O-])c2)CC1 | inconclusive: 0.355 µM [inhibitor, full curve, poor fit]
CC(=O)N(CCC1(c2ccc(C)cc2)CCOC(C(C)C)C1)Cc1ccccc1 (stereo not given) | inconclusive: 79.4 µM [inhibitor, single point]
